The test concerns Lymphosarcoma Mecca ip in C3AKF1 mice, survival T/C%. As to the kind of experiment: NCI In Vivo Anticancer Drug Screen. Data for tumor model Lymphosarcoma Mecca (intraperitoneal) in C3AKF1 (CHKRF1) mice. Particulars: T/C endpoint: survival time, mean or median, schedule: Q01DX010 (ip), vehicle: saline, higher T/C = longer survival. How it is done: The antitumor activity of compounds was measured in mice bearing transplantable tumors. Survival or tumor size were measured and the results are expressed as the measurement made in the treated group (T) divided by the measurement made in the vehicle treated control group (C). The tumor model used in this assay is Lymphosarcoma Mecca (intraperitoneal) in C3AKF1 (CHKRF1) mice

The list shows only some results of the screen, not a fair sample: it gathers some chemical classes. Other doses and runs of a compound may be missing. T/C: endpoint of the treated group in % of that of the vehicle group. Where survival is the endpoint, this PubChem deposit counts one and a half times the control or more as active, and values a quarter to a half above the control carry no call in these data; other NCI protocols may use other cut-offs. Some T/C values are marked as having no survivor count here; that says nothing about deaths at the dose. Schedules are NCI's codes, taken here to give the interval after Q, in days (D) or hours (H), and the number of doses after X. Some doses were run more than once; their values stand side by side, smallest first.

`ClCCN(CCCl)Cc1nc2ccccc2[nH]1`: the T/C was 95 % of control [survivor count not shown] (dose: 1.25 mg/kg/injection); 130 [survivor count not shown] and 135 % of control [survivor count not shown] (dose: 2.5 mg/kg/injection); 135 [survivor count not shown] and 165 % of control [survivor count not shown] (dose: 5.0 mg/kg/injection); 105 [survivor count not shown] and 130 % of control [survivor count not shown] (dose: 10.0 mg/kg/injection).
For the compound `ClCCNCCCl`, the T/C (dose: 18.8 mg/kg/injection) is 116 [survivor count not shown] and 233 % of control [survivor count not shown].
Turning to `NC1CCCCC1.NP(=O)(O)N(CCCl)CCCl`, the T/C runs as follows: (dose: 15.6 mg/kg/injection) 141 [survivor count not shown] and 155 % of control [survivor count not shown]; (dose: 31.3 mg/kg/injection) 155 [survivor count not shown] and 160 % of control [survivor count not shown]; (dose: 62.5 mg/kg/injection) 103 [survivor count not shown] and 150 % of control [survivor count not shown].
Take `CC(C(=O)O)N(CCCl)CCCl` (stereo unspecified): the T/C (dose: 0.5 mg/kg/injection) was 128 % of control [survivor count not shown], the T/C (dose: 1.0 mg/kg/injection) is 133 % of control [survivor count not shown], the T/C (dose: 2.0 mg/kg/injection) is 157 % of control [survivor count not shown] and the T/C (dose: 4.0 mg/kg/injection) was 104 % of control [survivor count not shown].
As to `NC(Cc1cccc(N(CCCl)CCCl)c1)C(=O)O` (stereo unspecified), the T/C is, setting by setting: (dose: 0.63 mg/kg/injection) 120 [survivor count not shown] and 140 % of control [survivor count not shown]; (dose: 1.25 mg/kg/injection) 136 [survivor count not shown] and 150 % of control [survivor count not shown]; (dose: 2.5 mg/kg/injection) 154 [survivor count not shown] and 185 % of control [survivor count not shown]; (dose: 5.0 mg/kg/injection) 110 [survivor count not shown] and 127 % of control [survivor count not shown].

The values above are taken from PubChem BioAssay AID304 (DTP/NCI, 2004).
